Results on three molecules are retold here after publication PMC4583784.

The chains behind the UniProt entries cited, without tags or fusion partners. Residues count along the entry.
UniProt P46527, residues 1-109: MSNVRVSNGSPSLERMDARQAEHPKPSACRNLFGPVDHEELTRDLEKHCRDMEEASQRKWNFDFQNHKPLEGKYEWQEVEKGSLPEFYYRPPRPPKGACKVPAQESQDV
UniProt P46414: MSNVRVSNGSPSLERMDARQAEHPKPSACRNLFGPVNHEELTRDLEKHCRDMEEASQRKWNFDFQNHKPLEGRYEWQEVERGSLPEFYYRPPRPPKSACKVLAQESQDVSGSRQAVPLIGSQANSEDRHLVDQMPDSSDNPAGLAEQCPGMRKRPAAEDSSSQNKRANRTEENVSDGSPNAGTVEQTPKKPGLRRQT

Test [1] has as its target CDK2 (mouse (endogenous in MEL)) (UniProt P97377). Nature of the test: co-IP; anti-CDK2 (1 µg, Protein A/G agarose) or IgG immunoprecipitates from MEL cells lysed in RIPA buffer; cells with vector-sh or Fbxo7-sh, with or without 6 days of DMSO; immunoblot. For orientation: A western blot detects proteins with antibodies after separation by electrophoresis.
A further test concerns the target GST-p27 (1–109) (UniProt P46527). Nature of the test: pull-down; GST-p27 (1–109) as bait; increasing doses of in vitro transcribed and translated T7-Fbxo7 added; immunoblot, bound Fbxo7 quantified relative to input and as a percentage of Fbxo7 Met115; only the target purified.

These are yes or no findings as the source states them, for the method shown. In cells and extracts the contact can be indirect. Some binding calls cover weakened binding; strength is not graded here.

In the case of p27 (from UniProt P46414 1-197), the binding result in test [1] was “binds”.

B1: T7-Fbxo7 (1–398) Met115 (domain or fragment, UniProt Q9Y3I1 1-398)
chain: MRLRVRLLKRTWPLEVPETEPTLGHLRSHLRQSLLCTWGYSSNTRFTITLNYKDPLTGDEETLASYGIVSGDLICLILQDDIPAPNIPSSTDSEHSSLQNNEQPSLATSSNQTSMQDEQPSDSFQGQAAQSGVWNDDSMLGPSQNFEAESIQDNAHMAEGTGFYPSEPMLCSESVEGQVPHSLETLYQSADCSDANDALIVLIHLLMLESGYIPQGTEAKALSMPEKWKLSGVYKLQYMHPLCEGSSATLTCVPLGNLIVVNATLKINNEIRSVKRLQLLPESFICKEKLGENVANIYKDLQKLSRLFKDQLVYPLLAFTRQALNLPDVFGLVVLPLELKLRIFRLLDVRSVLSLSAVCRDLFTASNDPLLWRFLYLRDFRDNTVRVQDTDWKELYRK
As for B1, the binding entry in the test with GST-p27 (1–109) is listed as “binds”.

B2: Fbxo7 (endogenous murine) (protein, UniProt Q3U7U3 1-523)
chain: MKLRVRLQKRTQPLEVPESEPTLGQLRAHLSQVLLPTLGFSSDTRFAITLNNKDALTGDEETLASYGIVSGDLICLVLEDDMPAPNLPSSTDTEHSSLQDNDQPSLAATPSQTNIPDEQGTDSSQGQATPFDAWTDDSMEGPSQNVEAESIQDAMSMEEVSGFHPLEPMLCNETEDGQVPHSLETLYQSAGCSNISDALIVLVHLLMLESGYIPQGTETKAVTMPEKWKSSGVYKLQYTHPLCEGGFAVLTCVPLGNLIIINATIKVNGGIKNVKSVQLQPGSYVAAGVEPGESAAKVYKDLKKLSRLFKDQLVYPLLAFTRQVLNLPDVFGLVVLPLELKLRIFRLLDVHSVLALSAVCHDLLIASNDPLLWRCLYLRDFRDGTVRGPDTDWKELYRKKHIQRKEAQRMRHAMFLPSAHPIPFCPIPVYPRAYLPTSLLPPGIIGGEYDERPILPSVGDPVTSLIPRPGELPGQFRPLRPRFDPVDPLPGPHSLLPGRAIPNNRFPFRPGRGRSADSRLPFL
For the molecule B2, the binding result in test [1] was “no binding”.
